This note sets out measurements from PubChem BioAssay AID493014 (National Center for Advancing Translational Sciences (NCATS), 2011).

Some of the results follow. Further columns of the screen follow, without active or inactive calls. Compounds called inactive in the main read-out are mostly missing here. Potencies come from curve fits of mixed quality, noted in brackets.

The nature of this assay: qHTS Assay to Find Inhibitors of Chronic Active B-Cell Receptor Signaling. The conditions noted are these: ABC-DLBCL IkBa-CBG/CBR reporter, luminescence ratio (green luciferase fused to IkBa over red control in TMD8 lymphoma cells), 4 h. An outline of the steps: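 Concentration-response series (up to 46 uM) were applied to TMD8 dual-reporter cells for 4 h at 37C with doxycycline. Green/red ratio, after filter-overlap correction, defined %Activity; red signal alone was normalised to basal cells and zero luminescence.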
On the technique in general: Quantitative high-throughput screening tests each substance at several concentrations.

Setting [1] is: measured here: CBR red luminescence, cell number.
Where [2] appears, read: measured here: IkBa-CBG green luminescence.

As a reminder, the AC50 is the concentration giving half of the maximal activity seen. Consider `CCOC(=S)SCC(=O)Nc1nc(C)c(C)s1`, for which the concentration at half-maximal activity (AC50) is, setting by setting: under setting [1], 2.82 µM [falling, full curve]; under setting [2], 10 µM [rising, partial curve, poor fit].
For the compound `Cc1ccc(NC(=O)CCC(=O)NNC(=O)Cc2ccccc2)cc1C`, the AC50 under setting [1] is 35.5 µM [rising, single point].
Turning to `Cc1cccc(NC(=O)Nc2cnccn2)c1`, under setting [1], the AC50 was 35.5 µM [falling, single point].
In the case of `CC(=O)COc1ccc2c(c1C)O/C(=C\c1ccco1)C2=O`, the concentration at half-maximal activity (AC50) under setting [1] is 0.282 µM [rising, full curve].
As to `Cc1nnc(Oc2ccccc2)c2ccccc12`, the AC50 under setting [1] was 1.12 µM [rising, full curve, poor fit].
On to `COCCN(CC(=O)Nc1cccc(C)c1C)C(=O)c1cc(S(=O)(=O)N2CCCC2)ccc1C`, for which the AC50 under setting [1] is 25.9 µM [rising, partial curve, poor fit].
The same measure, in the same setting: as for `COC(=O)c1cccc(NC(=O)CSc2nnc(COc3ccc(C#N)cc3)n2-c2ccccc2)c1`, the figure is 2.91 µM [falling, full curve, poor fit]; as for `COc1ccc(N(Cc2cc(=O)[nH]c3ccccc23)C(=O)CCl)cc1`, 17.8 µM [falling, partial curve]; as for `Cc1c(C(=O)N2CCC(C)CC2)oc2ccc(S(=O)(=O)N3CCC4(CC3)OCCO4)cc12`, 11.6 µM [falling, partial curve, poor fit].
`CCS(=O)(=O)c1ccc2oc(Nc3cc(C)cc(C)c3)nc2c1`: the AC50 under setting [1] was 1.58 µM [rising, full curve].
For the compound `COc1ccccc1NC(=O)C(C)N1CCN(C/C=C/c2ccccc2)CC1` (stereo unspecified), under setting [1], the AC50 was 15.8 µM [falling, single point].
With `Brc1ccc(-c2csc(N/N=C/c3cccnc3)n2)cc1`, the AC50 under setting [1] is 0.112 µM [rising, full curve, poor fit].
The same measure, in the same setting: as for `O=C(CCC(=O)N1CCN(S(=O)(=O)c2ccccc2Cl)CC1)c1ccccc1`, the figure is 11.6 µM [rising, single point]; as for `Cc1cc(NC(=O)c2cccnc2)ccc1NC(=O)c1cc2ccccc2o1`, 35.5 µM [falling, single point].
The same measure, in the same setting: as for `COc1ccc(C(=O)Nc2cnc3sc(C)nn3c2=O)cc1`, the figure is 35.5 µM [falling, single point]; as for `CCCC(=O)Nc1cccc(-c2nc3ccccc3o2)c1`, 20.6 µM [rising, single point].
With `COC(=O)c1ccc2c(c1)c(C#Cc1ccccc1)c(-c1ccccc1)n2C`, under setting [1], the AC50 is 3.66 µM [rising, partial curve].
Consider `O=C(NC(=S)Nc1ccc(Cc2ccncc2)cc1)c1ccccc1`, for which the AC50 under setting [1] was 20.6 µM [falling, partial curve, poor fit].
Still for that read-out and setting: as for `CC1(C)Oc2ccc(C(=O)N3CCc4ccccc43)cc2N(CC(=O)N2CCCC2)C1=O`, the figure is 7.08 µM [rising, full curve, poor fit]; as for `O=c1[nH]c(/C=C/c2ccccc2[N+](=O)[O-])nc2ccccc12`, 7.31 µM [falling, partial curve, poor fit].
As to `COCCNC(=O)c1ccc2c3n(nc2c1)-c1ccc(Cl)cc1CO3`, the concentration at half-maximal activity (AC50) under setting [1] is 17.8 µM [falling, partial curve, poor fit].
Take `CCOC(=O)C1CCN(C(=O)CCn2c(=O)[nH]c3ccccc3c2=O)CC1`: the AC50 under setting [1] is 4.47 µM [rising, single point].
On to `COc1ccc(NC(=O)Nc2cccc3c2O[C@H](CN(C)C(=O)Nc2ccccc2)[C@@H](C)CN([C@H](C)CO)C3=O)cc1`, for which the AC50 under setting [1] is 25.9 µM [rising, single point].
In the case of `Cc1ccc(C(=O)N2CCN(Cc3ccc4c(c3)OCO4)CC2)cc1S(=O)(=O)N1CCOCC1`, under setting [1], the AC50 is 35.5 µM [falling, single point].
For `O=C(Nc1ncnc2c1C(c1ccccc1)c1c(ccc3ccccc13)O2)c1ccccc1` (stereo unspecified), the AC50 under setting [1] was 18.4 µM [falling, partial curve, poor fit].
On to `O=C(NCc1ccco1)c1ccc(-c2csnn2)cc1`, for which the AC50 under setting [1] is 35.5 µM [falling, single point].
With `CC(Sc1nc(=O)cc(N)n1CCc1ccccc1)C(=O)NCc1ccccc1` (stereo unspecified), the AC50 under setting [1] was 14.1 µM [falling, partial curve, poor fit].
In the case of `O=C(Nc1cc([N+](=O)[O-])ccc1F)c1cccs1`, the AC50 under setting [1] is 14.6 µM [falling, partial curve, poor fit].
For the compound `O=C(c1cc(-c2cccs2)nc2ccccc12)N1CCN(c2ccccc2O)CC1`, under setting [1], the AC50 was 12.6 µM [falling, single point].
Same read-out and setting: as for `CC(=O)Nc1ccc(S(=O)(=O)NCC(=O)OCc2ccccc2)cc1`, the figure is 18.4 µM [rising, partial curve]; as for `O=C(Nc1cccc(S(=O)(=O)NC2=NCCCCC2)c1)c1cc(-c2ccccc2Cl)nc2ccccc12`, 23.1 µM [rising, single point].
With `COc1cccc(NC(=O)CN2C=NS(=O)(=O)c3ccccc32)c1`, the AC50 under setting [1] is 3.16 µM [falling, partial curve].
For the compound `Oc1ccccc1CNc1cnc2ccccc2c1`, under setting [1], the AC50 was 32.6 µM [falling, single point].
Regarding `COc1cccc(/C=C(\C)C(=O)c2c(C)cc(C)[nH]c2=O)c1OC`, the AC50 under setting [1] is 35.5 µM [rising, single point].
On to `Cc1ccc(N(C)C(=O)N2CCN(S(=O)(=O)c3ccc(C)c(C)c3)CC2)cc1`, for which the AC50 under setting [1] is 6.51 µM [falling, single point].
As to `O=C(Nc1cccc(-c2ccc(N3CCCCC3)nn2)c1)c1ccc(Br)o1`, the AC50 under setting [1] was 20.6 µM [falling, single point].
Consider `CCS(=O)(=O)NCCc1sc2nc(-c3ccc(OC)cc3)nn2c1C`, for which, under setting [1], the half-maximal activity concentration (AC50) is 8.91 µM [rising, partial curve, poor fit].
The same measure, in the same setting: next, `Cc1ccccc1-c1nsc(SCC(=O)c2ccc(Cl)cc2)n1`: 20.6 µM [rising, single point].
On to `C[C@]12CCC(=O)C=C1CC[C@@H]1[C@@H]2CC[C@@]2(C)[C@H]1CC[C@]2(O)C(=O)CO`, for which, under setting [1], the concentration at half-maximal activity (AC50) is 25.1 µM [rising, partial curve, poor fit].
Still for that read-out and setting: as for `COc1cccc(C(=O)/C=C/Nc2cccc(O)c2)c1`, the figure is 18.4 µM [falling, single point].
For the compound `CCOc1ccc(C(=O)Nc2cc(-c3nc4ccccc4[nH]3)ccc2C)cc1[N+](=O)[O-]`, the AC50 was 1.12 µM [rising, full curve] under setting [1] and 1.41 µM [falling, partial curve, poor fit] under setting [2].
Take `CCOC(=O)c1sc(N2C(=O)C(O)=C(C(=O)c3ccco3)C2c2ccc(C)o2)nc1C` (stereo unspecified): the half-maximal activity concentration (AC50) under setting [1] was 0.141 µM [falling, full curve, poor fit].
On the same count and under the same terms, as for `Cc1sc2ncnc(N/N=C/c3ccc(O)cc3)c2c1C`, the figure is 3.66 µM [falling, full curve]; as for `O=C1NC(=O)/C(=C\c2ccc(Br)o2)S1`, 31.6 µM [rising, partial curve, poor fit]; as for `O=C(CNS(=O)(=O)c1c(Cl)cccc1Cl)OCc1csc(-c2ccccc2)n1`, 20.6 µM [rising, single point].
For `Cc1ccccc1NC(=S)N/N=C/C(C)c1ccccc1` (stereo unspecified), the AC50 under setting [1] was 12.6 µM [falling, single point].
As for `O=C(CSC(=S)N1CCCCC1)Nc1ncc2c(n1)CC(c1ccco1)CC2=O` (stereo unspecified), the AC50 under setting [1] is 7.08 µM [rising, partial curve, poor fit].
Same read-out and setting: as for `COc1ccc(C(C(=O)NCC2CCCO2)N(C(=O)CNC(=O)c2cccs2)c2ccc(C(C)=O)cc2)cc1OC` (stereo unspecified), the figure is 7.08 µM [rising, partial curve, poor fit]; as for `CC(=C/c1ccccc1)/C=N/NC(=O)c1ccccn1`, 10 µM [falling, partial curve].
Consider `N/C(=N\OCc1ccc([N+](=O)[O-])cc1)c1ccccn1`, for which, under setting [1], the AC50 is 5.01 µM [falling, partial curve].
Same read-out and setting: next, `O=C(NCc1ccc(Cl)cc1)c1cc(=O)[nH]c2ccccc12`: 35.5 µM [rising, single point].
For the compound `COc1ccc(C(=O)Nc2sc3c(c2C#N)CCN(C(C)=O)C3)cc1`, the AC50 reads like this: under setting [1], 10 µM [rising, partial curve, poor fit]; under setting [2], 25.1 µM [falling, single point].
As to `CC(C)[N+]1(C)[C@@H]2CC[C@@H]1CC(OC(=O)C(CO)c1ccccc1)C2` (stereo partly specified), the AC50 under setting [1] is 0.092 µM [falling, full curve, poor fit].
Consider `C=CCN1C(=O)N(c2ccc(F)cc2)C(=O)C1CC(=O)Nc1ccc(Cl)cc1` (stereo unspecified), for which the AC50 under setting [1] was 35.5 µM [falling, single point].
For `COc1cccc(/C=C/C(=O)c2ccc3c(c2)OCCO3)c1OC`, the AC50 under setting [1] was 25.1 µM [falling, single point].
As for `CC(C)c1cc(C(=O)N2CCCC(C(=O)c3ccc4ccccc4c3)C2)on1` (stereo unspecified), under setting [1], the AC50 is 2 µM [rising, partial curve].
As for `COc1ccc(C2C(C#N)=C(N)Oc3cc(C)[nH]c(=O)c32)c(OC)c1OC` (stereo unspecified), under setting [1], the AC50 is 4.11 µM [falling, single point].
As for `Cc1cc(C(=O)NNc2ccc(C)c(C)c2)no1`, the AC50 under setting [1] was 35.5 µM [falling, single point].
Turning to `Nc1nnc(SCC(=O)OCC(=O)c2ccccc2Br)s1`, the AC50 under setting [1] was 5.01 µM [falling, single point].
Same read-out and setting: next, `Cc1ccc(S(=O)(=O)CCC(=O)c2ccc(O)cc2O)cc1`: 35.5 µM [falling, single point].
Take `COc1cc2c(cc1OC)C(C)N(C(C)=O)CC2` (stereo unspecified): the AC50 under setting [2] was 23.1 µM [falling, partial curve, poor fit].
With `COc1ccc(C2(C)NC(=O)NC2=O)cc1OC` (stereo unspecified), the AC50 under setting [1] is 5.62 µM [falling, single point].
Regarding `O=C(Nc1ccccc1)N1CC=C(c2ccc(F)cc2)CC1`, under setting [1], the AC50 is 29.1 µM [falling, single point].
